Reference: the supplement of paper PMC12067093, “Discovery and optimisation of a covalent ligand for TRIM25 and its application to targeted protein ubiquitination” (Chemical Science, 2025)
This is one part of the list.

Sequences of proteins named here, by UniProt entry; tags and fusion partners are left off. A change or cut given only in a name is not applied to a line headed by its entry.
UniProt P42285: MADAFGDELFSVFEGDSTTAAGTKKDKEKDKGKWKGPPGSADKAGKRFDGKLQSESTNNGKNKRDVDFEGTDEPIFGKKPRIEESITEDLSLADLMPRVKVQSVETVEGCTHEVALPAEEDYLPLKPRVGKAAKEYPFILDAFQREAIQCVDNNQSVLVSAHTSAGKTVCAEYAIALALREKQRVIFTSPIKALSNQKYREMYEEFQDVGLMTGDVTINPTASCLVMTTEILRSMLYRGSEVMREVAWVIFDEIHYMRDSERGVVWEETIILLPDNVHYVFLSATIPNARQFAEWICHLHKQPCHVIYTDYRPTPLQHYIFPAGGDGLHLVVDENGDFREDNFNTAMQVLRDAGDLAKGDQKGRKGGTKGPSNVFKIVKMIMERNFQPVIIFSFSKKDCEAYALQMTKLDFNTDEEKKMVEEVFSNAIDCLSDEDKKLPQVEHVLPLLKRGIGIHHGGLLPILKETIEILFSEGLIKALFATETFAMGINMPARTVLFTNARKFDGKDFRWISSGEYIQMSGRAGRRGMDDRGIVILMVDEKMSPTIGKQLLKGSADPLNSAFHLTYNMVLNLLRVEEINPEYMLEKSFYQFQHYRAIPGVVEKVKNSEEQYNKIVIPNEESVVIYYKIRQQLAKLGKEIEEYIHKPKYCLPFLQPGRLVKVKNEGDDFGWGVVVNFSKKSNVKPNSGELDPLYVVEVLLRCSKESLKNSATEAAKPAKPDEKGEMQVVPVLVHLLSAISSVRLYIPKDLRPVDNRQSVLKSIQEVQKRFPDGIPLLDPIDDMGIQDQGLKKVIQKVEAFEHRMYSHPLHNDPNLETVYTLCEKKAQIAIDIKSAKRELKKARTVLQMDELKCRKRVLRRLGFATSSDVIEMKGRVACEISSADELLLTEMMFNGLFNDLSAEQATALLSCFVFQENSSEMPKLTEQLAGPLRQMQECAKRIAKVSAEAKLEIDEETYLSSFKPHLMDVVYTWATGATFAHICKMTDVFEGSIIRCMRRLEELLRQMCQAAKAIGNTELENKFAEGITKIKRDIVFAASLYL
UniProt P35579, whole entry, looked up: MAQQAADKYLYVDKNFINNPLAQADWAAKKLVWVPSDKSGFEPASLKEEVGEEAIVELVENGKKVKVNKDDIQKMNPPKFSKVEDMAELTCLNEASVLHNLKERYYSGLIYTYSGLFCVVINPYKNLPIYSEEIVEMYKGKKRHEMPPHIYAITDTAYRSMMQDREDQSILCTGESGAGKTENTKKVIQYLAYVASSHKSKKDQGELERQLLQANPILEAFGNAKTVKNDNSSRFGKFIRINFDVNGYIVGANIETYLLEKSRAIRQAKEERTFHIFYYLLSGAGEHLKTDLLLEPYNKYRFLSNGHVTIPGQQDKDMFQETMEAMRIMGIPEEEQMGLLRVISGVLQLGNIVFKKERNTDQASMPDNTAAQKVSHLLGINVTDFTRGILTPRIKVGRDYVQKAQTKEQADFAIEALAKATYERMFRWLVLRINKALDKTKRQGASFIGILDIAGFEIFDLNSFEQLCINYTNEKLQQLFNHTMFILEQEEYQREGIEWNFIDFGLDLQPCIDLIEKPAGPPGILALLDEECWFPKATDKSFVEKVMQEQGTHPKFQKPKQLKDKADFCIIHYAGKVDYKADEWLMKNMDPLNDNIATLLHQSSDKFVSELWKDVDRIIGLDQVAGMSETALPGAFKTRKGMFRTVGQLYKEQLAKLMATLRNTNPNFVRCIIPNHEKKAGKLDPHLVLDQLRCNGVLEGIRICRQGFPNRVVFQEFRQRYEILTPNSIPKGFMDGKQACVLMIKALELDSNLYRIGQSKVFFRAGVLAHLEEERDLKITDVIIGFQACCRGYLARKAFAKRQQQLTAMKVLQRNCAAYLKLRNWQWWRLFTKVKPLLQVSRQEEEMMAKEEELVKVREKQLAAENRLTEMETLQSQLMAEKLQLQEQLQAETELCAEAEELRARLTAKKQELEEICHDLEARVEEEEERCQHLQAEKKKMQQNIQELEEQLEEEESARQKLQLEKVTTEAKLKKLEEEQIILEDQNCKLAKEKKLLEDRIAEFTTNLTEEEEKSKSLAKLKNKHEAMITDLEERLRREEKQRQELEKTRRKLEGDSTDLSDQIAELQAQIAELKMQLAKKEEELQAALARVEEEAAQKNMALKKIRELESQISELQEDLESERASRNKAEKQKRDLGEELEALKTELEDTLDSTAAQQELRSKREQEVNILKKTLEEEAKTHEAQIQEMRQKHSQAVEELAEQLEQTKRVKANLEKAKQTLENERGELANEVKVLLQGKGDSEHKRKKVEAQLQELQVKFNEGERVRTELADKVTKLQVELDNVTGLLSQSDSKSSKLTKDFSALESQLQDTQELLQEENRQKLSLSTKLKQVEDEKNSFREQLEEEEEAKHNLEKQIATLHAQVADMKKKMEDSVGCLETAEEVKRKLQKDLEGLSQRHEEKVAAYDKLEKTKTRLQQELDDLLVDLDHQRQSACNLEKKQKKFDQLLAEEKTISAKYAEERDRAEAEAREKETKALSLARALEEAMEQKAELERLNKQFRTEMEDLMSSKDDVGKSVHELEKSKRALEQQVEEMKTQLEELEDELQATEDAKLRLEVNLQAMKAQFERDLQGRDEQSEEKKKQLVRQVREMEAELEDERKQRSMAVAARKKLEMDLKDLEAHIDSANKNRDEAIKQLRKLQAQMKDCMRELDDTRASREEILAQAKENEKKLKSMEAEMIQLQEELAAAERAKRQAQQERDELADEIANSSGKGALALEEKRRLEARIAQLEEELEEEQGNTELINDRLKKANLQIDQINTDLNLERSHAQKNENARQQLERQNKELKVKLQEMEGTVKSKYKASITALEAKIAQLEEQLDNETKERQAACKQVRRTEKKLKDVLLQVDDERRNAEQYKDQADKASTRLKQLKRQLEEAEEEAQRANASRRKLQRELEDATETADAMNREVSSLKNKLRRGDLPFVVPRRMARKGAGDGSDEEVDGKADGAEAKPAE
UniProt P26038, whole entry: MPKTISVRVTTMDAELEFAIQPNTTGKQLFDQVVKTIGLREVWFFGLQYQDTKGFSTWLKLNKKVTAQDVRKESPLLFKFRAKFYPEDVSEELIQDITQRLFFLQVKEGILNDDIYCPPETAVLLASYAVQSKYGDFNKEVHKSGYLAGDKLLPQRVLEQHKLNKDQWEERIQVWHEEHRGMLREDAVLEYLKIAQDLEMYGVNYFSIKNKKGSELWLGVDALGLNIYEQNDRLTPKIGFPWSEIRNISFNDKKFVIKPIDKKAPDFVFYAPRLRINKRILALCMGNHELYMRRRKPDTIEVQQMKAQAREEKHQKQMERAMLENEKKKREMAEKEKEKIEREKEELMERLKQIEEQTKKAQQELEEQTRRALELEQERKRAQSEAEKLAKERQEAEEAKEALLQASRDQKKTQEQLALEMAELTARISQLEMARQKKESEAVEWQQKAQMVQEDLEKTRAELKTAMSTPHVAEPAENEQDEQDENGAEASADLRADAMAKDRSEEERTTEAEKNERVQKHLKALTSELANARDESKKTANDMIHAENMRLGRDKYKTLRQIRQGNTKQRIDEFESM
UniProt Q99836, whole entry, looked up: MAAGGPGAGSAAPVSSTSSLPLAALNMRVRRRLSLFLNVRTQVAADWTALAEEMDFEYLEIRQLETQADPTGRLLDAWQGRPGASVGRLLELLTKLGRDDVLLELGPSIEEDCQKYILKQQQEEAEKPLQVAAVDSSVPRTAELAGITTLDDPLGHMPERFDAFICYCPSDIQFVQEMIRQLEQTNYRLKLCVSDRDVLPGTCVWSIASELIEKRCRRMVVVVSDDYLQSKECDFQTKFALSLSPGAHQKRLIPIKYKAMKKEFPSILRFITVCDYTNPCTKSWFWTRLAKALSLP
UniProt Q9BQG0: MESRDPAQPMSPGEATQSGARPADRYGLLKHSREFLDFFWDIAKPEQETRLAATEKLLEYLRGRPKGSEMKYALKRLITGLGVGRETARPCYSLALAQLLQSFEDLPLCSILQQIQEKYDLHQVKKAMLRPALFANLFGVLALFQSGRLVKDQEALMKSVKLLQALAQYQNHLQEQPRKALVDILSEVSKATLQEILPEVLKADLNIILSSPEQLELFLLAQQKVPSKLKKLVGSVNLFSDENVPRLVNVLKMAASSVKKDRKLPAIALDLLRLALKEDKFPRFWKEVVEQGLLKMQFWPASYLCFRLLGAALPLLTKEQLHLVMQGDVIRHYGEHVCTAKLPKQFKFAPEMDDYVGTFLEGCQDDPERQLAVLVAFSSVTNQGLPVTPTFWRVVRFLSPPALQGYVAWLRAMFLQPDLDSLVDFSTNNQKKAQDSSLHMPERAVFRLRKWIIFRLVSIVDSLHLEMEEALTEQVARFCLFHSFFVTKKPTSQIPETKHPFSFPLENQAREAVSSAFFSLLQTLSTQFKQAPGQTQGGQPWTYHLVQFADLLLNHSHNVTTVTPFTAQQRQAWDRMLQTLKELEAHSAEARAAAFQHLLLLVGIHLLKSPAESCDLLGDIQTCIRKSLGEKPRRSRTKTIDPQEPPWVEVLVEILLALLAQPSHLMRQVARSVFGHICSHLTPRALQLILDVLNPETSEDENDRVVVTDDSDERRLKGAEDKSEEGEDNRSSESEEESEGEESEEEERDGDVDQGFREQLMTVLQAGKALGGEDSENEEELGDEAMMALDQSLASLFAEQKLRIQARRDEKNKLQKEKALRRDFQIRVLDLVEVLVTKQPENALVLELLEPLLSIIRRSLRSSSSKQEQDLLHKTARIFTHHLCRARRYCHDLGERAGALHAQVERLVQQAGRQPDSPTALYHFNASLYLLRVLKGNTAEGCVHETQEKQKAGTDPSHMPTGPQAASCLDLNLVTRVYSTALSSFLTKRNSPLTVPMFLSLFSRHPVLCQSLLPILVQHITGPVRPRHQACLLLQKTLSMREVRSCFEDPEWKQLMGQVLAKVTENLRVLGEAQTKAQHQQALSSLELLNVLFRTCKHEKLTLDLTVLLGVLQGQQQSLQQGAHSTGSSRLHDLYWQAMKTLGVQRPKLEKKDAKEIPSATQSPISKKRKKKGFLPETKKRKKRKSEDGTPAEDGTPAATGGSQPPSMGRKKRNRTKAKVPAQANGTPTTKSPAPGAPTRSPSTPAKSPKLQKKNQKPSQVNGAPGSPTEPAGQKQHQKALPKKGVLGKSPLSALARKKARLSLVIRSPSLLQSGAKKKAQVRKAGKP
UniProt P58546, whole entry, looked up: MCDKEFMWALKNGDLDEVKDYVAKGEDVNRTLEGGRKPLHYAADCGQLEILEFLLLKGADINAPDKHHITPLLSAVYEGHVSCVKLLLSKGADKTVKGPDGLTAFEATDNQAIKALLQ
UniProt P43246, whole entry, looked up: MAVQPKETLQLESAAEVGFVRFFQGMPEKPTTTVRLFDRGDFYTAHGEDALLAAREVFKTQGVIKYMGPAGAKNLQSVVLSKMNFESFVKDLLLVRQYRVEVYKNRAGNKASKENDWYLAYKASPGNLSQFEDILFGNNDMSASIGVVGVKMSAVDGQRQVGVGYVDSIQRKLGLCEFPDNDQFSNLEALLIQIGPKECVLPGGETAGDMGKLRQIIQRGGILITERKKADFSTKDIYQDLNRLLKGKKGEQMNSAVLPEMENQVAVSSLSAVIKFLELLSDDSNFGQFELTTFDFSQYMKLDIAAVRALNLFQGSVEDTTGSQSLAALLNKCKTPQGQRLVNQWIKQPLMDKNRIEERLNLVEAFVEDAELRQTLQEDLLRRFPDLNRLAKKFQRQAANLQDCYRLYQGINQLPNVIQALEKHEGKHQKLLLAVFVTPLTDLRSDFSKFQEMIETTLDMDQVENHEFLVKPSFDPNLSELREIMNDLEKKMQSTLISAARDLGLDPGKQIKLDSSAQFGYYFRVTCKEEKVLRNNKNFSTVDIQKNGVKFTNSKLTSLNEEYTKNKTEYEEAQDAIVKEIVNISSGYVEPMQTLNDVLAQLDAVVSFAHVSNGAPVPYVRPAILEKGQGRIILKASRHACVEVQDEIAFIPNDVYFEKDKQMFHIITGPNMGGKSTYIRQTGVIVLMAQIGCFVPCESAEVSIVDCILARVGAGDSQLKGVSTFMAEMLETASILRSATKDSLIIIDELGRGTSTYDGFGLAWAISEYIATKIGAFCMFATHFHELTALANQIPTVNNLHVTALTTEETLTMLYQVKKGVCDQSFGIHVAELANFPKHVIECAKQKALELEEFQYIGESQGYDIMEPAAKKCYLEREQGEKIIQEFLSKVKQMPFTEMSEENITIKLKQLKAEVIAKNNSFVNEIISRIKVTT
UniProt Q15390: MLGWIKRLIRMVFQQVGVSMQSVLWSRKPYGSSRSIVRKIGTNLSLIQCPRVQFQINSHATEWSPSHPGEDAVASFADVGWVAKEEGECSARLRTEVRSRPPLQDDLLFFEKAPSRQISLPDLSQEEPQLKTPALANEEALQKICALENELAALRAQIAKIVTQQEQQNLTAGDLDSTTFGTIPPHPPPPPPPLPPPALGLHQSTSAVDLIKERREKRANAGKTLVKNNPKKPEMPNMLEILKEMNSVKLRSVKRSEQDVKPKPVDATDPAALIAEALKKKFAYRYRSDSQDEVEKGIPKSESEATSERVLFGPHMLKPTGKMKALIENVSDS

Compound: Cc1cc(ccc1-c1ccccc1)C(=O)N1CCCN(CC1)C(=O)CCl [compound 10]
Experiment: probe-labelled cysteine peptide fold change vs DMSO (competition) (log2 fold change); higher = less target engagement (more negative = stronger competition)
Conditions: THP-1, incubation time: 4 h
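Further: competitive profiling in live THP-1 cells: cysteine peptides tagged with an iodoacetamide desthiobiotin (IA-DTB) probe, intensity after compound treatment relative to DMSO-treated cells.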

| Target | probe-labelled cysteine peptide fold change (10 µM) | probe-labelled cysteine peptide fold change (50 µM) |
| --- | --- | --- |
| MTREX_P42285_650_YCLPFLQPGR (UniProt P42285) | 0.122 | 0.266 |
| MSL3P1_P0C860_127_LVQLPCHTNIITILESYVK (UniProt P0C860) | 0.252 | 0.301 |
| MUM1_Q2TAK8_548_GSPEEPVVGCPLGQR (UniProt Q2TAK8) | -0.198 | -0.786 |
| MYH9_P35579_569_DKADFCIIHYAGK (UniProt P35579) | -0.0165 | -0.33 |
| MRPS30_Q9NP92_393_KNICWGTQSK (UniProt Q9NP92) | -0.162 | -0.72 |
| MSN_P26038_117_EGILNDDIYCPPETAVLLASYAVQSK (UniProt P26038) | -0.0133 | -0.24 |
| MTF2_Q9Y483_133_CGQGYHQLCHTPHIDSSVIDSDEK (UniProt Q9Y483) | 0.213 | 0.623 |
| MYD88_Q99836_168_FDAFICYCPSDIQFVQEMIR (UniProt Q99836) | 0.412 | -1.05 |
| MTREX_P42285_430_MVEEVFSNAIDCLSDEDK (UniProt P42285) | 0.159 | 0.292 |
| MVB12B_Q9H7P6_267_FSCVPESMQPFDLLGITIK (UniProt Q9H7P6) | 0.25 | -0.28 |
| MTMR3_Q13615_81_ESLVNVPLQLIESVECR (UniProt Q13615) | 0.463 | 0.198 |
| MYBL2_P10244_69_TDQQCQYR (UniProt P10244) | 0.291 | -0.456 |
| MYBBP1A_Q9BQG0_1031_HQACLLLQK (UniProt Q9BQG0) | -0.0483 | -0.0353 |
| MTPN_P58546_45_KPLHYAADCGQLEILEFLLLK (UniProt P58546) | -0.021 | 0.0447 |
| MTOR_P42345_1593_AYGAMVSCHMLSELEEVIQYK (UniProt P42345) | -0.0907 | -0.0524 |
| MYH9_P35579_789+790_ITDVIIGFQACCR (UniProt P35579) | 0.207 | 0.352 |
| MYBBP1A_Q9BQG0_614+623_SPAESCDLLGDIQTCIR (UniProt Q9BQG0) | -0.527 | -0.31 |
| MSH2_P43246_843_HVIECAK (UniProt P43246) | -0.061 | -0.109 |
| MTREX_P42285_110_VQSVETVEGCTHEVALPAEEDYLPLKPR (UniProt P42285) | -0.0679 | -0.193 |
| MYD88_Q99836_203_LCVSDRDVLPGTCVWSIASELIEKR (UniProt Q99836) | 0.0807 | -0.881 |

| Target | probe-labelled cysteine peptide fold change (10 µM) | probe-labelled cysteine peptide fold change (50 µM) |
| --- | --- | --- |
| MYH9_P35579_789_ITDVIIGFQACCR (UniProt P35579) | -0.109 | -0.0345 |
| MYBBP1A_Q9BQG0_614_SPAESCDLLGDIQTCIR (UniProt Q9BQG0) | 0.0501 | 0.11 |
| MYCBP2_O75592_3051_AVFASFLWHEGIVHDAMACSSFLK (UniProt O75592) | -0.0655 | 0.0836 |
| MSH6_P52701_765_VDTCHTPFGK (UniProt P52701) | -0.0518 | -0.0855 |
| MYCBP2_O75592_938_FDCELR (UniProt O75592) | 0.00942 | -0.217 |
| MTMR6_Q9Y217_214_CLEDEHLLQAISK (UniProt Q9Y217) | -0.103 | -0.217 |
| MTHFD1L_Q6UB35_814_AEIDLVCELAK (UniProt Q6UB35) | 0.102 | 0.164 |
| MTFR1_Q15390_89_EEGECSAR (UniProt Q15390) | -0.206 | -0.545 |
| MXI1_P50539_100_LKVLIPLGPDCTR (UniProt P50539) | -0.14 | 0.213 |
| MYBBP1A_Q9BQG0_890_YCHDLGER (UniProt Q9BQG0) | 0.0113 | 0.0393 |
| MYD88_Q99836_233_ECDFQTK (UniProt Q99836) | -0.0727 | -0.614 |
| MTM1_Q13496_113_GENSYGLDITCK (UniProt Q13496) | -0.125 | 0.0925 |
| MSRB2_Q9Y3D2_45_GQAGGGGPGTGPGLGEAGSLATCELPLAK (UniProt Q9Y3D2) | -0.129 | -0.277 |
| MYCBP2_O75592_4578_ELICGACSDVSR (UniProt O75592) | 0.199 | -0.223 |
| MSH2_P43246_822_GVCDQSFGIHVAELANFPK (UniProt P43246) | -0.0886 | 0.121 |
| MTFR1_Q15390_145_ICALENELAALR (UniProt Q15390) | 0.0366 | -0.607 |
| MTA2_O94776_261_AMSTLVPQGGPVLCR (UniProt O94776) | -0.233 | 0.122 |
| MUS81_Q96NY9_16_KRPLPACPNPLFVR (UniProt Q96NY9) | -0.274 | -0.241 |
| MRPS5_P82675_377_GLHVVEIREECGPLPIVVASPR (UniProt P82675) | -0.186 | -0.0933 |
